Measured values: publication PMC3996523
These are yes or no findings as the source states them, for the method shown. In cells and extracts the contact can be indirect. Some results given as binding are weak or reduced against the parent protein; the word gives no strength.

By UniProt entry, the sequences of proteins in these tests, tags left out. Residues count along the entry.
UniProt O95831, residues 102-613: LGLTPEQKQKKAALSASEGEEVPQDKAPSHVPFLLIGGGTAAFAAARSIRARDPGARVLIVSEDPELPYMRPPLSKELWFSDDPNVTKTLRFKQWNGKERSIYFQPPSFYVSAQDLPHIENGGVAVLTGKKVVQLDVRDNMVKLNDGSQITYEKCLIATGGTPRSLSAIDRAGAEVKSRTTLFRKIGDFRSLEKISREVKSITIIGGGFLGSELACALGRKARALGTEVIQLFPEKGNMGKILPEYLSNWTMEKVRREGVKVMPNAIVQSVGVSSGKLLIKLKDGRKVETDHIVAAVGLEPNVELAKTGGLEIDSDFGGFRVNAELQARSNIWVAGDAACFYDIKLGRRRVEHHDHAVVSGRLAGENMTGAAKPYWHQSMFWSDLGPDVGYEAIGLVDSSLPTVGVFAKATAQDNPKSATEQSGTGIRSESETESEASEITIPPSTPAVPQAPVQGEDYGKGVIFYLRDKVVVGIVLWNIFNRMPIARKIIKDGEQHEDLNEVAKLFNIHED
UniProt P08670: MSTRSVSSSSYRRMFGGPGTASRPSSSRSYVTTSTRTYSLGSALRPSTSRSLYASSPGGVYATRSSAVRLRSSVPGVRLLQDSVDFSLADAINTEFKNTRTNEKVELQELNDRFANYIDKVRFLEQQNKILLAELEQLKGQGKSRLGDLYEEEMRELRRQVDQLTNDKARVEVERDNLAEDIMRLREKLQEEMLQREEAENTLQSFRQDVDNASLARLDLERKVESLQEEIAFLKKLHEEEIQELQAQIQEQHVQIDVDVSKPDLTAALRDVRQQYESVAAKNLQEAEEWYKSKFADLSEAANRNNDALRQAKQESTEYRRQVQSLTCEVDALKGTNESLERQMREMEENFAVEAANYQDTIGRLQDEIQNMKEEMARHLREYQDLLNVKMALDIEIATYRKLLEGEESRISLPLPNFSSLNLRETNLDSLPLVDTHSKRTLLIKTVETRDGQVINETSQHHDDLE

Tests used:
[1] = target: T1, peptidylarginine deiminase 3 (PAD3) (human (endogenous in hNSCs)) (UniProt Q9ULW8); assay: co-IP; hNSC protein extract of control cells (no thapsigargin) precipitated with anti-PAD3 antibody (5 ug), Catch and Release kit; eluate analysed by Western blot
T1 sequence: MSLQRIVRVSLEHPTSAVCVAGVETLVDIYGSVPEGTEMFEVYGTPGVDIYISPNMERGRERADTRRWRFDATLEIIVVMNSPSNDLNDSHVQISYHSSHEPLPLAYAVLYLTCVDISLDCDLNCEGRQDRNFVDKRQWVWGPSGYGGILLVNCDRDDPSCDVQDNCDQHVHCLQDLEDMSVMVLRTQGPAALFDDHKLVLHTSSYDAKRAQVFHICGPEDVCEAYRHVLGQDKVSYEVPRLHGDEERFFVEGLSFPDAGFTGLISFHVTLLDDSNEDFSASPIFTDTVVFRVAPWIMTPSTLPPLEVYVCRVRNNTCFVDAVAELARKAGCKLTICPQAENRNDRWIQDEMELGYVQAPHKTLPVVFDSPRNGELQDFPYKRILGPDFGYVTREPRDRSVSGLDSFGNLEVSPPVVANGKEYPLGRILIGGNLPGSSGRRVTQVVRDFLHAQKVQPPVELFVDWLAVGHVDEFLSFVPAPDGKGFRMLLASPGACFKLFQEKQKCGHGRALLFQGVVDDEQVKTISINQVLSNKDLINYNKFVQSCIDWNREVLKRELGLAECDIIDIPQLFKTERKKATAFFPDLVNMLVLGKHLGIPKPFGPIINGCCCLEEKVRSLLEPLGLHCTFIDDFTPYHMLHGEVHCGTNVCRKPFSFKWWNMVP

[2] = target: T1, peptidylarginine deiminase 3 (PAD3) (human (endogenous in hNSCs)); assay: co-IP; hNSC protein extract (300-700 ug) of thapsigargin-treated cells precipitated with anti-PAD3 antibody (5 ug), Catch and Release kit; eluate analysed by Western blot
[3] = target: apoptosis inducing factor (AIF) (human (endogenous in hNSCs)) (UniProt O95831); assay: co-IP; hNSC protein extract precipitated with anti-AIF antibody (2 ug), Catch and Release kit; eluate analysed by Western blot; treatment of the cells not told

Row | binding [2] | binding [3] | Substance | binding [1]
1 | binds |  | apoptosis inducing factor (AIF) (from UniProt O95831 102-613) | no binding (condition: cells without thapsigargin)
2 | binds | binds | vimentin (from UniProt P08670 1-466) | no binding (condition: cells without thapsigargin)
